# Data as given in patent publication US10702607B2, “Abuse-deterrent pharmaceutical compositions” (priority 2016, dated 2020).
# Columns and labels:
# [1] = tested on: horseradish peroxidase and laccase (MtL), with glucose oxidase; experiment: Inactivation of oxycodone with enzyme system peroxidase/laccase (oxygen measurement, HPLC-MS); type: biochemical, Myceliophthora thermophila (laccase)
# [2] = tested on: laccase; experiment: Laccase mediator system (LMS) with oxycodone: HPLC-MS/TOF measurement; conditions: mediators 2 mM, vanillin also 6 mM
structure (smiles),measurement,setting,value
"COc1ccc2c3c1O[C@H]1C(=O)CC[C@@]4(O)[C@@H](C2)N(C)CC[C@]314 [oxycodone, (5R,9R,13S,14S)-4,5α-epoxy-14-hydroxy-3-methoxy-17-methylmorphinan-6-one]",product of the enzymatic conversion of oxycodone,[1]; HPLC-MS measurement of reaction rate,converted to a product which precipitated
same,enzymatic conversion of oxycodone by HRP and laccase,"[1]; HRP 10 U/ml, glucose oxidase 20 U/ml, laccase 25 U/ml, oxycodone 10 mg/ml, glucose 10 mg/ml, distilled water, room temperature, oxygen consumption and HPLC-MS",successfully converted
same,oxycodone concentration in the laccase mediator system,[2],decrease in oxycodone concentration was confirmed
